Measurements published in PMC1716192, “A Plant-Derived Morphinan as a Novel Lead Compound Active against Malaria Liver Stages” (PLoS Medicine, 2006).

System: P. yoelii (265 BY strain) hepatic stages
Experiment: In vitro assay for P. yoelii liver stage inhibition in primary mouse hepatocytes
Format: cell-based
Conditions: Plasmodium yoelii, Hepatocyte, 48 h
Experimental: P. yoelii (265 BY strain) and P. falciparum (NF 54 strain) sporozoites were obtained by dissection of infected Anopheles stephensi salivary glands. Primary mouse hepatocytes were isolated as previously described and seeded in eight-well Lab-Tek plastic chamber slides (VWR, Fontenay-sous-Bois, France) previously coated with rat-tail collagen I (BD Biosciences, Le Pont de Claix, France) at a density of 10^5 cells per well. […] Parasites were quantified on the last day of incubation. For the in vitro timing experiments, tazopsine treatment of P. yoelii and P. falciparum cultures was undertaken for different periods during the cultivation: 0 h to 3 h, 3 h to 24 h, or 24 h to 48 h after P. yoelii sporozoite inoculation (quantification at 48 h), or 0 h to 2 d, or 3 d to 5 d after P. falciparum sporozoite inoculation (quantification at 5 d). […] Parasite numbers were counted under a fluorescence microscope with a 25× light microscope objective.
IC50 and TC50 were calculated by nonlinear regression using four-parameter logistic curves on the SigmaPlot 10.0 software (http://www.systat.com). Each IC50 or TC50 is expressed as a mean between two independent experiments, followed by the standard error of the mean.

CN1CC[C@]23c4c5ccc(O)c4O[C@H]2[C@@H](O)C=C[C@H]3[C@H]1C5 [morphine, reference compound]
IC50: > 100 µM
